From PubChem BioAssay AID504444 (National Center for Advancing Translational Sciences (NCATS), 2011)
Hit rate of the full screen: of about 360,000 compounds, about 7,500 (2.1%) were called active. Inconclusive means that the source gave no clear call. Such entries were picked first, then a sample of the others. The call rests on the fitted dose curve; in most records, active means well fitted inhibition curve with a large enough effect; inconclusive means small, poorly fitted or top-dose-only effect, or effect the other way; inactive means flat fitted curve, though single readings scatter. Potencies beside an inconclusive call are fits to weak or partial responses and may not hold up.

experiment: Nrf2 qHTS screen for inhibitors; conditions: A549 ARE-Fluc reporter, luciferase luminescence, 18-24 h; activity change, negative = inhibition: at 46 µM (top of the series); further: nearly all actives have a fitted effect of over 60% in size
Outline: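 Nrf2 activity is the BugLite luminescence, read 15 min after reagent at room temperature, following CellTiter-Fluor cytotoxicity readout (30 min, 37C). Compound titrations were applied for 18-24 h to 5000 A549 ARE_Fluc cells/well in 5% FBS OPTI-MEM.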
On the % scale 0 is the no-effect control and ±100 the full control effect; potency means the concentration at half of the fitted maximal effect.

Row | SMILES | Potency | activity change, negative = inhibition
1 | COc1cc2c(cc1NC(=O)C(Cl)Cl)-c1ccc(NC(=O)C(Cl)Cl)cc1C2 | inconclusive: 29.1 µM [falling, single point] | 
2 | CCOC(=O)c1c(NC(=S)N2CCOCC2)sc2c1CCN(C(=O)OCC)C2 | inconclusive: 16.4 µM [falling, single point] | 
3 | N/C(=N\OC(=O)COc1cc(Cl)c(Cl)cc1Cl)c1ccccn1 | inconclusive: 10.3 µM [activator, partial curve] | 
4 | COc1ccc(Cc2nnc(NC(=O)Nc3ccc(C)cc3)s2)cc1OC | inconclusive: 2.59 µM [falling, partial curve, poor fit] | 
5 | O=c1[nH]c2ccccc2c2nc(-c3cccc(S(=O)(=O)N4CCCC4)c3)nn12 | inconclusive: 11.6 µM [falling, partial curve] | 
6 | CCOC(=O)c1c(C)[nH]c(C)c1S(=O)(=O)N(C)CC(=O)N1CCN(c2cccc(C)c2C)CC1 |  | inactive: 0%
7 | COc1ccc(-c2cc(C(=O)Nc3ccc(OC)c(OC)c3)no2)cc1 | inconclusive: 0.82 µM [falling, full curve] | 
8 | Cc1cc(C(=O)Nc2cccc(C(F)(F)F)c2)c2c(C)nn(-c3cccc(F)c3)c2n1 | inconclusive: 23.1 µM [falling, single point] | 
9 | Cc1nn2c3c(cnc2c1-c1ccc(F)cc1)C(=O)CC(c1ccccc1)C3 (stereo not drawn) |  | inactive: -19.3%
10 | CCCOc1ccc(C(=O)C(c2ccccc2)N2CCOCC2)cc1 (stereo not drawn) |  | inactive: -25%
11 | CC(CCc1ccccc1)NCC(O)c1cccc([N+](=O)[O-])c1 (stereo not drawn) | inconclusive: 6.51 µM [activator, single point] | 
12 | COc1ccc(C(C)C)cc1S(=O)(=O)Nc1ccc(Cl)cn1 | inconclusive: 2.91 µM [falling, full curve] | 
13 | Nc1nonc1-c1nc2ccccc2n1CC(=O)N1CCCCC1 |  | inactive: -6.46%
14 | COc1ccc(-n2ncc(Cl)c(Cl)c2=O)cc1 | inconclusive: 5.8 µM [activator, partial curve, poor fit] | 
15 | CC(C)Cn1nc(NC(=O)c2cccs2)c2cc3ccccc3nc21 | active: 16.4 µM | 
16 | O=C(CSc1nnnn1C1CC1)Nc1cc(S(=O)(=O)N2CCCC2)ccc1Cl | inconclusive: 23.1 µM [falling, single point] | 
17 | CCOc1ccc(CNCCN2CCCC2)cc1 |  | inactive: 3.55%
18 | CCN(c1ccccc1)S(=O)(=O)c1ccc(C(=O)Nc2nnc(CSC)o2)cc1 | active: 11.6 µM | 
19 | Cc1ccc(CCNC(=O)C(C)n2nc(C)c3c(C)n(-c4ccccc4)nc3c2=O)cc1 (stereo not drawn) |  | inactive: -18.2%
20 | CC(=O)c1ccc(NC(=O)c2ccn(C(=O)OCC(C)C)n2)cc1 | inconclusive: 1.84 µM [activator, full curve] | 
21 | Cn1c(=O)[nH]c(=O)c2c1nc(Br)n2C/C=N/Nc1ccccc1 | inconclusive: 29.1 µM [falling, single point] | 
22 | CC(C)=CCc1c(O)cc2c(=O)c3ccc(O)cc3oc2c1O | inconclusive: 25.9 µM [activator, single point] | 
23 | Cc1cccc2nc(CSc3nnc4ccccn34)cn12 | inconclusive: 0.411 µM [activator, full curve, poor fit] | 

Row | SMILES | Potency | activity change, negative = inhibition
24 | CC(=O)c1cccc(NC(=O)C2CCN(c3nnc(-n4cccc4)s3)CC2)c1 |  | inactive: 20.1%
25 | CCCN1C(=O)c2[nH]nc(-c3ccc(F)cc3)c2C1c1ccc(O)c(OCC)c1 (stereo not drawn) |  | inactive: -13%
26 | Cc1cc(C(=O)Nc2sc3c(c2C#N)CCCCC3)cs1 | inconclusive: 2.59 µM [activator, partial curve] | 
27 | CN(C)Cc1nc2ccccc2c(=O)n1Cc1nc(-c2cc3ccccc3o2)cs1 | inconclusive: 36.6 µM [falling, partial curve, poor fit] | 
28 | Cc1ccccc1Cn1c(=O)n(CCCCC(=O)NCc2ccc3c(c2)OCO3)c(=O)c2ccccc21 | inconclusive: 29.1 µM [activator, single point] | 
29 | COc1ccc(-c2cc(C(=O)N3CC(C)CC(C)C3)c3ccccc3n2)cc1OC (stereo not drawn) |  | inactive: -8.98%
30 | CCC1Oc2ccccc2N(CC(=O)Nc2ccc3c(c2)OCCO3)C1=O (stereo not drawn) |  | inactive: 13.4%
31 | Cc1csc(Nc2ccccc2)n1 | inconclusive: 10.3 µM [activator, partial curve, poor fit] | 
32 | COc1ccc(S(=O)(=O)Nc2ccccc2N2CCOCC2)cc1OC |  | inactive: 0.255%
33 | O=C(NCCc1ccccc1)c1c2c(nc3ccccc13)C(=O)N(C1CCCCC1)C2 | inconclusive: 20.6 µM [activator, single point] | 
34 | CCCCN1C(=O)C(NC(C)=O)c2cc(Br)ccc21 (stereo not drawn) |  | inactive: -17.4%
35 | CN(C)/C=N/c1cnc(C(=O)c2ccc(Cl)cc2)n1C | inconclusive: 2.51 µM [activator, full curve] | 
36 | Nc1c(S(=O)(=O)c2ccccc2)cnc2c(-c3ccc(F)cc3)cnn12 | inconclusive: 3.66 µM [falling, partial curve, poor fit] | 
37 | CC(C)c1cc(C(=O)N/N=C/c2ccco2)n[nH]1 | inconclusive: 23.1 µM [activator, single point] | 
38 | O=C(Nc1cccc(C(=O)N2CCCc3ccccc32)c1)c1ccccc1 | inconclusive: 23.1 µM [falling, single point] | 
39 | CCN(c1ccccc1)S(=O)(=O)c1ccc2c(c1)OCCO2 |  | inactive: 14.7%
40 | CCn1nnc(NC(=O)c2ccc(-c3ccccc3[N+](=O)[O-])o2)n1 | inconclusive: 23.1 µM [activator, single point] | 
41 | Cc1cc(C)cc(-n2c(C)cc(/C=N/NC(=O)CN(c3c(C)cccc3C)S(C)(=O)=O)c2C)c1 | inconclusive: 29.1 µM [falling, single point] | 
42 | Cc1cs/c(=N\N=C\c2ccc(O)cc2)n1Cc1ccco1 | inconclusive: 16.4 µM [falling, partial curve, poor fit] | 
43 | c1ccc2oc(-c3ccn[nH]3)cc2c1 | inconclusive: 2.59 µM [activator, full curve, poor fit] | 
44 | Brc1ccc(-c2csc(NNC3=NCCCCC3)n2)cc1 |  | inactive: 15.4%
45 | Cc1ccc(CON=C2CCN(c3ncc(C(F)(F)F)cc3Cl)CC2)cc1 |  | inactive: -16.5%
46 | O=C(CSc1ncccn1)NCc1ccc2c(c1)OCO2 | inconclusive: 9.2 µM [activator, partial curve] | 

Row | SMILES | Potency | activity change, negative = inhibition
47 | CCOc1ccc(CNC(=O)C(C)n2ncn3cccc3c2=O)cc1 (stereo not drawn) | inconclusive: 29.1 µM [activator, single point] | 
48 | O=C(c1ccc(Br)cc1)N1CCC(c2nc3ccccc3s2)CC1 | inconclusive: 9.2 µM [falling, single point] | 
49 | Clc1ccc(-c2nnc(CCc3ccccc3)o2)c(Cl)c1 | inconclusive: 2.59 µM [activator, full curve, poor fit] | 
50 | Cc1ccc(C)n1-n1c(C)nc2scc(-c3ccccc3)c2c1=O | inconclusive: 0.517 µM [falling, partial curve, poor fit] | 
51 | O=C1NC[C@H](c2ccccc2)OC(=O)[C@H](Cc2ccc(F)cc2)CC/C=C/C[C@@H]1CC(=O)N(CCO)Cc1ccccc1 | inconclusive: 25.9 µM [falling, single point] | 
52 | CCOc1ccccc1CNC(=O)C1=C(C)C(=O)OC12CCN(C(C)=O)CC2 | inconclusive: 29.1 µM [activator, single point] | 
53 | Clc1ccc(-c2nc3ccccc3[nH]2)cn1 | inconclusive: 29.1 µM [activator, single point] | 
54 | CCN(Cc1ccccc1)S(=O)(=O)c1ccc(S(=O)(=O)N2CCN(C)CC2)cc1 | inconclusive: 3.66 µM [activator, partial curve, poor fit] | 
55 | COc1cc(/C=N/NC(=O)c2ccc(CN3C(=O)c4cccc5cccc3c45)cc2)cc(OC)c1O | inconclusive: 29.1 µM [falling, single point] | 
56 | CCN(CC)S(=O)(=O)c1ccc(N/N=C(\C)c2cccnc2)nc1 | inconclusive: 10.3 µM [falling, partial curve, poor fit] | 
57 | Cn1c(=O)n(Cc2ccccc2Br)c2ccccc21 | inconclusive: 14.6 µM [activator, partial curve] | 
58 | Cc1cc(C)c(OCCCON2C(=O)CCC2=O)c(Br)c1 | inconclusive: 29.1 µM [falling, single point] | 
59 | COc1cc(C(=O)NCCc2ccc(S(N)(=O)=O)cc2)cc(OC)c1OC | inconclusive: 2.31 µM [falling, partial curve, poor fit] | 
60 | COc1cccc(COc2ccc3c(C)cc(=O)oc3c2)c1 | inconclusive: 10.3 µM [activator, partial curve] | 
61 | CN(CC(=O)Nc1cccc(S(=O)(=O)N2CCCCC2)c1)Cc1ccc(F)cc1 | inconclusive: 20.6 µM [falling, single point] | 
62 | O=C(Cn1nc(-c2ccc(Cl)cc2)ccc1=O)NCCCN1CCN(Cc2ccccc2)CC1 |  | inactive: -3.2%
63 | Cc1cccc(NC(=O)CSCC(=O)Nc2ccccc2N2CCCCC2)c1 | inconclusive: 25.9 µM [falling, partial curve, poor fit] | 
64 | COCCn1c(-c2ccc(OC)cc2)cnc1SCC(=O)Nc1cc(C)on1 | inconclusive: 20.6 µM [falling, single point] | 
65 | Cc1ccc2cc(/C=N/Nc3ccc(C(=O)O)cc3)c(Cl)nc2c1 | inconclusive: 4.11 µM [activator, full curve] | 
66 | CCCN1CNc2c(c(=O)[nH]c(=S)n2CCc2ccccn2)C1 |  | inactive: 4.55%
67 | CCC(=O)Nc1nc2ccc3nc(C)sc3c2s1 | inconclusive: 2.91 µM [activator, full curve] | 
68 | Cn1ccsc1=NC(=O)c1ccc(S(=O)(=O)C(F)F)cc1 | inconclusive: 25.9 µM [activator, single point] | 

One compound at a time (already shown).
COc1cc(/C=N/NC(=O)c2ccc(CN3C(=O)c4cccc5cccc3c45)cc2)cc(OC)c1O is entered as Potency: inconclusive: 29.1 µM [falling, single point]
O=C1NC[C@H](c2ccccc2)OC(=O)[C@H](Cc2ccc(F)cc2)CC/C=C/C[C@@H]1CC(=O)N(CCO)Cc1ccccc1 is entered as Potency: inconclusive: 25.9 µM [falling, single point]
Cc1cccc(NC(=O)CSCC(=O)Nc2ccccc2N2CCCCC2)c1 is entered as Potency: inconclusive: 25.9 µM [falling, partial curve, poor fit]
CCCN1CNc2c(c(=O)[nH]c(=S)n2CCc2ccccn2)C1 is entered as activity change, negative = inhibition: inactive: 4.55%
